Experimental findings from PubChem BioAssay AID2685 (National Center for Advancing Translational Sciences (NCATS), 2010) are described below.

Some of the results follow. The main result of the screen is listed elsewhere. These columns were measured beside it and carry no call. Compounds called inactive in the main read-out are mostly missing here. The note in brackets gives the kind of curve behind each potency; many fits are weak.

This assay can be described thus: qHTS Assay for Lipid Storage Modulators in Drosophila S3 Cells.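 For cell number change: cells counted by Cell Tracker Red CMTPX staining in the red channel.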 The note with it: BODIPY lipid droplet fluorescence, 18-24 h; for cell number change: measured here: cell count max response, cells fed with added oleic acid. The method, boiled down: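 Laser-scanning cytometry quantifies lipid droplet accumulation (500–530 nm total intensity; droplet/cell object ratio) in oleic acid-fed (400 uM added) Drosophila S3 cells treated with a concentration series. 20 uM Triacsin C defined 100% inhibition.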
A general note: qHTS replaces the single test concentration by a dilution series.

The mark [1] stands for this setting: measured here: lipid fluorescence (Fed channel) AC50, cells fed with added oleic acid.
[2] abbreviates: measured here: cell number channel AC50, cells fed with added oleic acid.

As for `O=C1CC(N2CCSCC2)C(=O)N1c1ccc(F)cc1` (centres undefined), the cell number change turned out to be 17.4%.

One may read the AC50 as the concentration giving half of the maximal activity seen. Higher therefore signals weaker potency. Consider `COC(=O)c1c(NC(=O)CC2NCCNC2=O)sc2c1CCCC2` (centres undefined), for which the cell number change is 20.6%. In addition, under setting [1], the AC50 is 7.31 µM [rising, partial curve, poor fit].

With `CC/C(C)=N/NS(=O)(=O)c1ccc(C)c([N+](=O)[O-])c1`, the cell number change came to 10.3%. The AC50 under setting [1] was 10.3 µM [rising, partial curve, poor fit].

Regarding `CCCNC(=O)CN(C)C(=O)c1n[nH]c2ccccc12`, the cell number change was 5.42%. Moreover, the half-maximal activity concentration (AC50) under setting [2] is 6.51 µM [rising, single point]. Also, the AC50 under setting [1] was 0.164 µM [falling, full curve, poor fit].

Regarding `CCOC(=O)CC1C(=O)NCCN1S(=O)(=O)c1ccc(C)cc1` (centres undefined), the cell number change was 22.5%. In addition, the half-maximal activity concentration (AC50) under setting [1] is 0.231 µM [rising, full curve, poor fit].

With `COc1ccc(C2C(C(=O)OC3CCCCC3)=C(C)Nc3nnnn32)c(OC)c1OC` (centres undefined), the cell number change is -41.6%. Besides, the AC50 under setting [2] was 1.03 µM [falling, partial curve]. The AC50 under setting [1] is 0.651 µM [falling, full curve].

Consider `Cc1ccc2c(c1)N(CCC(=O)NCCN1CCOCC1)C(=O)CO2`, for which the cell number change was -14.3%.

For `Cc1onc(-c2ccccc2)c1C(=O)OCC(=O)Nc1cc(S(=O)(=O)N2CCOCC2)ccc1Cl`, the cell number change was 48.1%.

`O=C(Nc1cccc(F)c1)c1ccc(S(=O)(=O)N2CCCC2)cc1`: the cell number change is -25.2%. Moreover, the AC50 under setting [1] is 32.6 µM [falling, single point].

For `COc1ccc(NC(=O)CC2C(=O)Nc3ccccc3N2CC(=O)N2CCCC2)cc1` (centres undefined), the cell number change came to 4.95%. Further, the concentration at half-maximal activity (AC50) under setting [2] was 2.91 µM [falling, single point]. For the same compound, the AC50 under setting [1] is 6.51 µM [falling, partial curve, poor fit].

Turning to `COc1ccc(/C=N/NC(=O)c2ccc(Br)o2)cc1Cn1cc([N+](=O)[O-])cn1`, the cell number change came out at 43.6%. Besides, the AC50 under setting [2] was 10.3 µM [rising, partial curve, poor fit]. The half-maximal activity concentration (AC50) under setting [1] was 5.17 µM [rising, partial curve].

`COc1ccc(/C=N/NC(=O)c2ccc(CN3C(=O)c4cccc5cccc3c45)cc2)cc1O`: the AC50 under setting [1] is 32.6 µM [falling, single point].

For the compound `Cc1ccc2oc(=O)n(CCOc3ccccc3)c2c1`, the cell number change came to 18.9%. Further, the half-maximal activity concentration (AC50) under setting [1] was 0.326 µM [rising, full curve, poor fit].

With `CNC(=S)N(CCN(C)C)Cc1cc2cc3c(cc2[nH]c1=O)OCO3`, the cell number change was 2.7%.

With `COc1ccc(S(=O)(=O)N2CCN(c3ncccn3)CC2)cc1[N+](=O)[O-]`, the cell number change amounted to 3.28%. Moreover, the AC50 under setting [2] is 5.8 µM [falling, partial curve].

`CCOC(=O)c1c(NC(=O)c2cccs2)sc(C(=O)N(C)C)c1C`: the concentration at half-maximal activity (AC50) is 1.46 µM [rising, partial curve] under setting [2] and 20.6 µM [falling, single point] under setting [1].

On to `Cc1ccnc(NC(=O)C2CCN(S(=O)(=O)c3ccc(Cl)c(C(F)(F)F)c3)CC2)c1`, for which the AC50 under setting [1] was 1.3 µM [falling, partial curve].

Regarding `O=C(Cn1ccc2ccccc2c1=O)N1CCN(Cc2ccc3c(c2)OCO3)CC1`, the cell number change is -38.9%. The half-maximal activity concentration (AC50) under setting [2] is 9.2 µM [falling, partial curve, poor fit]. For the same compound, the AC50 under setting [1] was 4.11 µM [falling, partial curve, poor fit].

Regarding `CCC1(C)Cc2nc3[nH]c(=S)n(-c4ccccc4)c(=O)c3cc2CO1` (centres undefined), the cell number change was -48.9%. Under setting [2], the AC50 was 0.0731 µM [falling, full curve]. The AC50 under setting [1] was 0.82 µM [falling, full curve, poor fit].

Turning to `CN1C(=O)N(CC(=O)N2CCN(c3ncccn3)CC2)C(=O)C12CCCCC2`, the cell number change is -77.1%. The AC50 under setting [2] is 20.6 µM [falling, single point].

With `O=C(CNCc1ccc(Cl)cc1)NCc1ccco1`, the cell number change worked out at 17.5%. Under setting [1], the AC50 was 7.31 µM [falling, single point].

In the case of `O=C1CC(c2ccco2)Cc2nc(Nc3ccc(F)cc3)ncc21` (centres undefined), the cell number change was -34.6%. Further, under setting [2], the AC50 was 11.6 µM [falling, partial curve, poor fit].

In the case of `Cc1c(NC(=O)CN2C(=O)NC(C)(c3ccc(OC(F)F)cc3)C2=O)c(=O)n(-c2ccccc2)n1C` (centres undefined), the cell number change was -33.7%. The half-maximal activity concentration (AC50) under setting [2] is 4.61 µM [falling, full curve].

`CCC(=S)/C=C1\Sc2ccccc2N1CCCS(=O)(=O)O`: the cell number change was -13.3%.

`CCN1CCN(c2ncnc3scc(-c4ccc(C)c(C)c4)c23)CC1`: the cell number change is -2.86%.

Regarding `COc1ccccc1NC(=O)CSc1nnc(Cc2cc(=O)[nH]c(=O)[nH]2)n1-c1ccccc1`, the half-maximal activity concentration (AC50) under setting [2] was 3.66 µM [falling, single point].

For the compound `Cc1ccc(C(C)NC(=O)C2CCCC2)cc1C` (centres undefined), the cell number change was -18%. Under setting [1], the AC50 was 29.1 µM [rising, single point].

In the case of `Cc1ccc(S(=O)(=O)NCC(=O)Nc2ccc3c(c2)OCO3)cc1`, the cell number change is 6.58%. Moreover, the AC50 under setting [1] was 6.31 µM [rising, single point].

For `CCN1CCN(c2ccc(S(=O)(=O)N3CCCCC3)cc2NC(=O)/C=C/c2cc(OC)ccc2OC)CC1`, the cell number change was -0.697%. The concentration at half-maximal activity (AC50) under setting [2] was 1.64 µM [rising, partial curve, poor fit]. In addition, under setting [1], the concentration at half-maximal activity (AC50) was 20.6 µM [falling, single point].

Consider `COc1cccc(/C=N/n2c(C)nc3ccccc3c2=O)c1O`, for which the cell number change was -84.5%. Also, under setting [2], the AC50 is 29.1 µM [falling, single point]. In addition, the AC50 under setting [1] was 0.58 µM [rising, full curve, poor fit].

As for `Cc1ccc2nc(SCC(=O)Nc3cccnc3Cl)[nH]c2c1`, the cell number change is 22.8%. Under setting [1], the AC50 was 29.1 µM [rising, single point].

In the case of `CC(C)CNC(=O)C(=O)NCC1CCCN1S(=O)(=O)c1cccs1` (centres undefined), the cell number change worked out at 11.6%.

Regarding `CNc1c(C(=O)O)ccc2c1C(=O)c1ccccc1C2=O`, the cell number change is -22.8%. The AC50 under setting [1] was 3.66 µM [rising, partial curve].

On to `N#Cc1ccc(CN2CCN(C(=O)CC(NC(=O)c3ccccc3)c3ccccc3)CC2)cc1` (centres undefined), for which the cell number change stood at 10.3%.

In the case of `COC(=O)c1c(NC(=O)COC(=O)c2ccccn2)sc(C)c1C`, the AC50 under setting [1] was 2.59 µM [rising, single point].

Regarding `CC[N+](CC)(CC)CCOc1cccc(OCC[N+](CC)(CC)CC)c1OCC[N+](CC)(CC)CC`, the cell number change is -22.3%. The concentration at half-maximal activity (AC50) under setting [1] was 5.8 µM [falling, single point].

Take `CCOC(=O)N1CCN(S(=O)(=O)c2ccc(C(=O)N(CCCN(C)C)c3nc4c(F)cc(F)cc4s3)cc2)CC1`: the cell number change is 64%.
